Some of the results follow.
Legend:
Assay in all cases: log2 fold change, soluble protein after heating vs DMSO (PISA); higher = thermal stabilisation; K562 lysate, 10 uM; active = over 0.2 and 3.5 SD of the protein, either way, in both replicates (recomputed)
[1] = compound: NCC(=O)Nc1ccc(-n2nc(C(F)(F)F)cc2-c2ccc3c(ccc4ccccc43)c2)cc1
Outline: (§1)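 A 30 min treatment with 10 μM compound was applied to crude K562 extract at 1 mg/mL protein in PBS pH 7.4 with 1 mM MgCl2. Heating for 3 min spanned 48°C-58°C, after which aliquots were pooled, adjusted to 0.5% NP-40 at 4°C and spun at 21,000xg for 90 min. TMTpro 16plex LC-MS/MS of the supernatant, with channel sums equalised, gave values recorded as log-two fold change in thermal stability against solvent controls, from duplicates.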

By UniProt entry, the sequences of proteins in these tests, tags left out. Where a name states a change or a piece, a line headed by the entry shows the natural chain unless it says otherwise.
UniProt Q6IPR3: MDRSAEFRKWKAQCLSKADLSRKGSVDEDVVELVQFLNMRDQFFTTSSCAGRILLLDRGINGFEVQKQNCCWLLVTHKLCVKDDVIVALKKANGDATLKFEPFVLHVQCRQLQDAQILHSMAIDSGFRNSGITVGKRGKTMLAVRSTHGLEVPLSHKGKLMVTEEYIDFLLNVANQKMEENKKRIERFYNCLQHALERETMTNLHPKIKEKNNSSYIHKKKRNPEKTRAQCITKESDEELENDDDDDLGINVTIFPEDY
UniProt Q5T4S7, whole entry, looked up: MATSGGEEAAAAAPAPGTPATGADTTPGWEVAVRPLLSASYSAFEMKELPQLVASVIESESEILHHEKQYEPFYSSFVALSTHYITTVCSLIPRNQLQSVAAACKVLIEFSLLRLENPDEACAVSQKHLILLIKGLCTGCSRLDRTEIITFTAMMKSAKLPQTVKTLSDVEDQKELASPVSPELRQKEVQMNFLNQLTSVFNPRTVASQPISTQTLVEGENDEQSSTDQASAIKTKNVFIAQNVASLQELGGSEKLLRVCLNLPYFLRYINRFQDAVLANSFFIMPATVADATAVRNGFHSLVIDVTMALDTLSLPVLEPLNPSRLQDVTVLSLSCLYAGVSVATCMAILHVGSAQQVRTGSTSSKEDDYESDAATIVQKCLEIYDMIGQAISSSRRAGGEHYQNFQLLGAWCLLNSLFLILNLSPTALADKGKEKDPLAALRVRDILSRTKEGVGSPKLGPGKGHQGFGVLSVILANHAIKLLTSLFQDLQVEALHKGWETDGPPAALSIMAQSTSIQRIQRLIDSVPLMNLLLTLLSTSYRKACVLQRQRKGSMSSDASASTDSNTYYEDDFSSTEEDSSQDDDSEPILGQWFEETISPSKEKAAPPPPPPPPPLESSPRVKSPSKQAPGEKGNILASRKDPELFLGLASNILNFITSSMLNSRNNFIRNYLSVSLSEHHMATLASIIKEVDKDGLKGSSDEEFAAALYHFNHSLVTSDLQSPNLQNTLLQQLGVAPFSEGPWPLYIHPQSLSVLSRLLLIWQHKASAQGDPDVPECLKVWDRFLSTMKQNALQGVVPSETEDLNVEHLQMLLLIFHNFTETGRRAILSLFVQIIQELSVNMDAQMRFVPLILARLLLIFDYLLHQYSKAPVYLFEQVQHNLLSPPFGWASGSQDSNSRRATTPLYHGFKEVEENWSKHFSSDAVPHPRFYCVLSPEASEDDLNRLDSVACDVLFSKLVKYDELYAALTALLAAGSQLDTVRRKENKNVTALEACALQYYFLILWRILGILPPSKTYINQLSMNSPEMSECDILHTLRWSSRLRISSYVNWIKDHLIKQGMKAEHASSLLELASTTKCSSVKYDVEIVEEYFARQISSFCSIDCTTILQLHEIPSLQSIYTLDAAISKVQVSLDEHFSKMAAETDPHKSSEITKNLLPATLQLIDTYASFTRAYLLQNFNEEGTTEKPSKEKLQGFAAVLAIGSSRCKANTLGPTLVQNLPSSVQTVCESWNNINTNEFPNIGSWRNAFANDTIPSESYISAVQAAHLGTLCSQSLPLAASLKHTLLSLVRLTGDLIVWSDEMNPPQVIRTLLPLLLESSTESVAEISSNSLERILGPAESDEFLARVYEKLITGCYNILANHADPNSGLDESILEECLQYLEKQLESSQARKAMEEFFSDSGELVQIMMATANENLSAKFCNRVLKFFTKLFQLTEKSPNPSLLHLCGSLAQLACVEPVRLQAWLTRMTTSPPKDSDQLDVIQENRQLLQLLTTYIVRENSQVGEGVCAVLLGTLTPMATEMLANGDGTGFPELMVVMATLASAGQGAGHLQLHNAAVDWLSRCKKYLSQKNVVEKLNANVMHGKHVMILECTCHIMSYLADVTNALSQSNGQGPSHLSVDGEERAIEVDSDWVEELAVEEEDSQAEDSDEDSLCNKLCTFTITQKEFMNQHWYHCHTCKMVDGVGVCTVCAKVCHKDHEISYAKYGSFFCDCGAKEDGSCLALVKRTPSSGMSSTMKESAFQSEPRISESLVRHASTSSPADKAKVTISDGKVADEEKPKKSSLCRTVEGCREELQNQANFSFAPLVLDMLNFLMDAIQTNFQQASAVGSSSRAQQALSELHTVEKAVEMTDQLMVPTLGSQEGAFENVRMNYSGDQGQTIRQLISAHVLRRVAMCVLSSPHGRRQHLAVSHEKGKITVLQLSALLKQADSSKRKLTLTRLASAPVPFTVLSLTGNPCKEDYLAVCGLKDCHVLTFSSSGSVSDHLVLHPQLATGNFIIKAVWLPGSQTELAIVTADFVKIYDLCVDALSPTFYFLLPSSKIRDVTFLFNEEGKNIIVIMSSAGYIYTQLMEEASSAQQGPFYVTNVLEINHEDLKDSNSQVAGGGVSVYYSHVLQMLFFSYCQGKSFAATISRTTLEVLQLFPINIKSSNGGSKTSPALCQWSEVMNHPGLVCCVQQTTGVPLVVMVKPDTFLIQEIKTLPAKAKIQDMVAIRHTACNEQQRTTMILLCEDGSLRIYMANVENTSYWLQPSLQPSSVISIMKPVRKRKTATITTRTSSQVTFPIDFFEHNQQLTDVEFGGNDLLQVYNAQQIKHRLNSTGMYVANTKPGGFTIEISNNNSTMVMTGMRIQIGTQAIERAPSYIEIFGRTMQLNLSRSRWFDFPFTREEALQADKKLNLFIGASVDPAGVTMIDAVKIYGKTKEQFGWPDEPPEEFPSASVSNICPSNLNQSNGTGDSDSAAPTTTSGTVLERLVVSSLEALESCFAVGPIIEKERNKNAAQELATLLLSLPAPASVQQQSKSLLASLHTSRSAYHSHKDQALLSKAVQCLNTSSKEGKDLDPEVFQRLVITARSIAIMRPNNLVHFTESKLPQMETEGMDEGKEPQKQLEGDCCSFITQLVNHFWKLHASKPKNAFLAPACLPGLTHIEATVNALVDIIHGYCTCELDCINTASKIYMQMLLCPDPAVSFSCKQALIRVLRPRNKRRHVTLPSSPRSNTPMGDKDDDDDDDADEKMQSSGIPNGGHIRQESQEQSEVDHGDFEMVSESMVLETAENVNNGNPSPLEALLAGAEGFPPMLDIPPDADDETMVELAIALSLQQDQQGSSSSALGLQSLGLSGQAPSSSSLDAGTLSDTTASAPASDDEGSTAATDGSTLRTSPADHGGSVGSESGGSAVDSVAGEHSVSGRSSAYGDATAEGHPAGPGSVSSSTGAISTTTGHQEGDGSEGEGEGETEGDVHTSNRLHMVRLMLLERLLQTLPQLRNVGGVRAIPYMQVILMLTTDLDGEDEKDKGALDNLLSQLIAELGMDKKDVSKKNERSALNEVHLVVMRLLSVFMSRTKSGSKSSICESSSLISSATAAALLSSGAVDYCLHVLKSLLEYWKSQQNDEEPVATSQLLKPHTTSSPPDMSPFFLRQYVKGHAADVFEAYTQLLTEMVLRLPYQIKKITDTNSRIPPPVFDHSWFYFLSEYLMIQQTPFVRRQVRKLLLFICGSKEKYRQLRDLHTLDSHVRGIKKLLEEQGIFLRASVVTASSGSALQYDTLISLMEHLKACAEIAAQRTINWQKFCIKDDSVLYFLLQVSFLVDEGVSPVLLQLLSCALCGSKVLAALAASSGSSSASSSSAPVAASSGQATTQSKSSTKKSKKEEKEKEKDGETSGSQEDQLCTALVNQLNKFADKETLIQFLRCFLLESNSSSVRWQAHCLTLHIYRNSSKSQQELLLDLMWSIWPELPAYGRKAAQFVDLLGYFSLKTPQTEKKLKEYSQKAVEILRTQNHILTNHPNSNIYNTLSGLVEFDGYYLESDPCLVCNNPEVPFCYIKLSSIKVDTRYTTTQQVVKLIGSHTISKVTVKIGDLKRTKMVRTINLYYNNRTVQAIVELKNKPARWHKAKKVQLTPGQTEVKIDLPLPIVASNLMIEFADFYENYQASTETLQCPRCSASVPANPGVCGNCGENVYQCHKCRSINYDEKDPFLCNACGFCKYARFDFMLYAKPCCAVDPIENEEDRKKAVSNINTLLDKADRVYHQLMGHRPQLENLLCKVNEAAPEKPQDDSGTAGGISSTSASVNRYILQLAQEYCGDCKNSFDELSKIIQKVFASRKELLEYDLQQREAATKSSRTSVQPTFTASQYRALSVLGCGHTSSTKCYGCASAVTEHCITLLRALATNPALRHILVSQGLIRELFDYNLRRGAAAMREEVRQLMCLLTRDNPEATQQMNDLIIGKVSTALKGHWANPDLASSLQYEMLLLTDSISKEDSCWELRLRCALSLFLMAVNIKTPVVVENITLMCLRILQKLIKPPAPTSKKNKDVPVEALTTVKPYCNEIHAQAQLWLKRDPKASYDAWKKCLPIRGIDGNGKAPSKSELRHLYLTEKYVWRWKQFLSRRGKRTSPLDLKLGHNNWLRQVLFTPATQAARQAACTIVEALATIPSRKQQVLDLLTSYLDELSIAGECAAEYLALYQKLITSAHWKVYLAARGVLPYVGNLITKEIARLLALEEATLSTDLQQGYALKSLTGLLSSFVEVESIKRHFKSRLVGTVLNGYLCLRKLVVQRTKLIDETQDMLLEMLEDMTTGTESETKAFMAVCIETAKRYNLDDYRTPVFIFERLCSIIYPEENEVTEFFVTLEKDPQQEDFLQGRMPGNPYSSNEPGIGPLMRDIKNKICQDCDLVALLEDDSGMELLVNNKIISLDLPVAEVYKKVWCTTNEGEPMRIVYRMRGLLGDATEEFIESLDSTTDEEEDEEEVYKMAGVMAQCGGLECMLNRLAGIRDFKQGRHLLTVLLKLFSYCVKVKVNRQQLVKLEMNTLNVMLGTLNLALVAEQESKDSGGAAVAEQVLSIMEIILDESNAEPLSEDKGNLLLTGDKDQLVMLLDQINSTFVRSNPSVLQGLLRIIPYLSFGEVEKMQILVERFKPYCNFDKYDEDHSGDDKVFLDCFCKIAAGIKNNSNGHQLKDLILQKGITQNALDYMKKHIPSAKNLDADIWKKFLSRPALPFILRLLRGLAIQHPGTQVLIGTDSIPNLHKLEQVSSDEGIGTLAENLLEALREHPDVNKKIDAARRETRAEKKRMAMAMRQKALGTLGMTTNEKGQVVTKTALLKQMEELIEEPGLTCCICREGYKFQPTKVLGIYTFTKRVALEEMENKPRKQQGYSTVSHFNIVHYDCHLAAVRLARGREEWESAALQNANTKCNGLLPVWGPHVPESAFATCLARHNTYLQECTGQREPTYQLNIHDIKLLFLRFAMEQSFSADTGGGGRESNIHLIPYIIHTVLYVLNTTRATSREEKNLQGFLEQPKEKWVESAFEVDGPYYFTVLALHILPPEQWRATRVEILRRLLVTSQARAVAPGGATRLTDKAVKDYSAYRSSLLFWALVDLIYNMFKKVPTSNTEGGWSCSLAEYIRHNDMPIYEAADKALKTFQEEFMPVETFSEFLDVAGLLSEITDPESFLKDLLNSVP
UniProt P04818: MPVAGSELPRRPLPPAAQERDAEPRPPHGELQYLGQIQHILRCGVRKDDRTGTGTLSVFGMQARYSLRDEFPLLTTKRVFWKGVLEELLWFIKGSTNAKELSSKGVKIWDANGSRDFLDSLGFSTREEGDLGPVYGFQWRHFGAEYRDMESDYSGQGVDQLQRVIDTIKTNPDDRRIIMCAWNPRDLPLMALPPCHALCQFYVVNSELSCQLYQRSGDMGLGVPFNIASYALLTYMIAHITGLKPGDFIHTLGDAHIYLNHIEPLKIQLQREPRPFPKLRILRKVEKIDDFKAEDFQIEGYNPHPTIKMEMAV
UniProt Q13454: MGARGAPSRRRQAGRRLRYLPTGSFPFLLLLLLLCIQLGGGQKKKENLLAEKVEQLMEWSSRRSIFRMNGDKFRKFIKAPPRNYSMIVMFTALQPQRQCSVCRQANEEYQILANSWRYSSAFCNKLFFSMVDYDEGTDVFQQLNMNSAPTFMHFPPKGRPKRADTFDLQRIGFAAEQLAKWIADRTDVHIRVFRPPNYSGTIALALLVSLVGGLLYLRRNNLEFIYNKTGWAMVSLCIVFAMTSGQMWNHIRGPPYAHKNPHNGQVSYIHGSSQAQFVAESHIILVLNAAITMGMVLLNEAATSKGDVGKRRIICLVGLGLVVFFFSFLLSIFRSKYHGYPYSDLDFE
UniProt Q96S82: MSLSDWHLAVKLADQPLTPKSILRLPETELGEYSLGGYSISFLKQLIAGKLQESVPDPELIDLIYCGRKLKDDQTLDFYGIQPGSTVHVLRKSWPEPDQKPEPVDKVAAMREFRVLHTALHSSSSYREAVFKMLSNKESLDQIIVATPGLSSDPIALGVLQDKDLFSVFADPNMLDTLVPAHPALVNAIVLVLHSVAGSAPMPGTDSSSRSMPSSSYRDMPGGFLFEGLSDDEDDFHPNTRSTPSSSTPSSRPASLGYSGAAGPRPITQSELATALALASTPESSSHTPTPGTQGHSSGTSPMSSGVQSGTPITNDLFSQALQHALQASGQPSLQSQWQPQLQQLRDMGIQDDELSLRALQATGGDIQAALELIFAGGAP

vorinostat = compound: O=C(CCCCCCC(=O)Nc1ccccc1)NO [vorinostat]
Outline: as §1

silmitasertib = compound: O=C(O)c1ccc2c(c1)nc(Nc1cccc(Cl)c1)c1ccncc12 [silmitasertib]
Outline: as §1

[2] = compound: O=C1NC(=O)C(c2cnc3ccccn23)=C1c1cn2c3c(cc(F)cc13)CN(C(=O)N1CCCCC1)CC2
Outline: as §1

entospletinib = compound: c1cn2cc(-c3ccc4cn[nH]c4c3)nc(Nc3ccc(N4CCOCC4)cc3)c2n1 [entospletinib]
Outline: as §1

Measured: log2 fold change

TUT7 (UniProt Q5VYS8)
inactive: [1] -0.059 | vorinostat -0.07 | silmitasertib -0.002 | [2] 0 | entospletinib -0.036

UBE2W isoform 3 (UniProt Q96B02)
inactive: [1] 0.092 | vorinostat -0.012 | silmitasertib 0.144

UBR5 (UniProt O95071)
inactive: [1] 0.009 | silmitasertib 0.011 | [2] -0.011 | entospletinib -0.006
active: vorinostat -0.234

UBIAD1 (UniProt Q9Y5Z9)
inactive: [1] -0.061 | vorinostat 0.042 | silmitasertib 0.04 | [2] 0.032 | entospletinib 0.058

TYW3 (UniProt Q6IPR3)
active: vorinostat -0.694
inactive: [1] 0.036 | silmitasertib 0 | [2] -0.042 | entospletinib -0.001

UBR4 (UniProt Q5T4S7)
inactive: [1] 0 | vorinostat -0.14 | silmitasertib 0.027 | [2] -0.008 | entospletinib 0.009

UCK1 isoform 4 (UniProt Q9HA47)
inactive: [1] -0.091 | vorinostat -0.144 | silmitasertib -0.076 | [2] 0 | entospletinib 0.004

TUBB4B (UniProt P68371)
inactive: [1] 0.014 | silmitasertib 0.024 | [2] -0.001 | entospletinib 0.005
active: vorinostat -0.712

TYMS (UniProt P04818)
inactive: [1] -0.02 | silmitasertib 0.009 | [2] -0.005 | entospletinib 0.031
active: vorinostat -0.231

UCK2 (UniProt Q9BZX2)
inactive: [1] -0.051 | vorinostat -0.171 | silmitasertib -0.022 | [2] -0.025 | entospletinib 0.023

UBE2J2 (UniProt Q8N2K1)
inactive: [1] 0.141 | vorinostat -0.301 | silmitasertib 0.03 | [2] -0.092 | entospletinib 0.065

TXNDC5 (UniProt Q8NBS9)
inactive: [1] 0.02 | vorinostat 0.1 | silmitasertib -0.032 | [2] 0.015 | entospletinib 0

TXNDC9 (UniProt O14530)
inactive: [1] -0.009 | vorinostat 0.011 | silmitasertib 0.014 | [2] 0 | entospletinib 0.013

TXNL1 (UniProt O43396)
inactive: [1] -0.022 | vorinostat 0.125 | silmitasertib -0.015 | [2] -0.013 | entospletinib -0.02

UAP1 (UniProt Q16222)
inactive: [1] 0.003 | vorinostat -0.055 | silmitasertib -0.001 | [2] 0.002 | entospletinib 0.014

UBXN10 (UniProt Q96LJ8)
inactive: [1] -0.018 | silmitasertib -0.005 | [2] -0.002 | entospletinib 0
active: vorinostat -0.321

TXNRD2 (UniProt Q9NNW7)
inactive: [1] -0.016 | vorinostat 0.125 | silmitasertib -0.025 | [2] 0.029 | entospletinib 0.023

UBE2A (UniProt P49459)
inactive: [1] 0 | vorinostat 0.093 | silmitasertib -0.029 | [2] 0.008 | entospletinib 0.024

UBA2 (UniProt Q9UBT2)
inactive: [1] 0.001 | vorinostat 0.011 | silmitasertib 0.007 | [2] -0.007 | entospletinib 0.031

TUSC3 isoform 2 (UniProt Q13454)
inactive: [1] 0.026 | vorinostat 0.136 | silmitasertib 0.024 | [2] 0.009 | entospletinib -0.05

U2SURP (UniProt O15042)
inactive: [1] 0.01 | vorinostat -0.208 | silmitasertib 0.007 | [2] -0.007 | entospletinib -0.007

TUBGCP6 (UniProt Q96RT7)
inactive: [1] -0.097 | vorinostat -0.336 | silmitasertib 0.041 | [2] 0.147 | entospletinib 0.14

UBL4A (UniProt P11441)
inactive: [1] -0.036 | vorinostat -0.016 | silmitasertib 0.04 | [2] 0.007 | entospletinib -0.011

UBL7 (UniProt Q96S82)
inactive: [1] -0.033 | vorinostat 0.135 | silmitasertib -0.019 | [2] -0.022 | entospletinib -0.149

UBA3 (UniProt Q8TBC4)
inactive: [1] 0.001 | vorinostat -0.202 | silmitasertib 0.023 | [2] -0.029 | entospletinib 0

UBAP2L isoform 5 (UniProt Q14157)
inactive: [1] 0.013 | vorinostat 0.126 | silmitasertib -0.037 | [2] -0.018 | entospletinib -0.042

TUBD1 (UniProt Q9UJT1)
inactive: [1] 0.177 | vorinostat 0.023 | silmitasertib -0.036 | [2] 0.043 | entospletinib 0.101

From the supplement of paper PMC10849652
